According to PMC10367558:
Results are given in words; binding and its absence hold for the method and conditions named. In cells and extracts the contact can be indirect. Some entries that bind do so weakly or less than the wild type. One block for each substance: values may come before it.

Amino acid sequences for entries named in this document (tags omitted).
UniProt O00311: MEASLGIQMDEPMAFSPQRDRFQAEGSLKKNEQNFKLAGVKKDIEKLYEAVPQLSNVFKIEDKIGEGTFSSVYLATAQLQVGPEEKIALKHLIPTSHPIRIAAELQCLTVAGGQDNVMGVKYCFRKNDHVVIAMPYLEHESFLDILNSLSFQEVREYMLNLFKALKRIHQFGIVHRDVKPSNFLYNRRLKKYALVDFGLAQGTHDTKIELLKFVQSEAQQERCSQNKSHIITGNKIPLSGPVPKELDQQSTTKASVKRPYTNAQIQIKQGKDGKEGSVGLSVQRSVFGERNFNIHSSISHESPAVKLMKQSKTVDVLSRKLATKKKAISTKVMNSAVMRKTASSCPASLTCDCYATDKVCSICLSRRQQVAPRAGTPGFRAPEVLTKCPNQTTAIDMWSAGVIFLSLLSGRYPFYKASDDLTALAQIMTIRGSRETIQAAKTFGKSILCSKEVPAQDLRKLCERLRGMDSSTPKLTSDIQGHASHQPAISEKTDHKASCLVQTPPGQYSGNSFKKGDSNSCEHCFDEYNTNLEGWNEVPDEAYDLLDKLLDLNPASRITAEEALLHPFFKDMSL
UniProt P40763: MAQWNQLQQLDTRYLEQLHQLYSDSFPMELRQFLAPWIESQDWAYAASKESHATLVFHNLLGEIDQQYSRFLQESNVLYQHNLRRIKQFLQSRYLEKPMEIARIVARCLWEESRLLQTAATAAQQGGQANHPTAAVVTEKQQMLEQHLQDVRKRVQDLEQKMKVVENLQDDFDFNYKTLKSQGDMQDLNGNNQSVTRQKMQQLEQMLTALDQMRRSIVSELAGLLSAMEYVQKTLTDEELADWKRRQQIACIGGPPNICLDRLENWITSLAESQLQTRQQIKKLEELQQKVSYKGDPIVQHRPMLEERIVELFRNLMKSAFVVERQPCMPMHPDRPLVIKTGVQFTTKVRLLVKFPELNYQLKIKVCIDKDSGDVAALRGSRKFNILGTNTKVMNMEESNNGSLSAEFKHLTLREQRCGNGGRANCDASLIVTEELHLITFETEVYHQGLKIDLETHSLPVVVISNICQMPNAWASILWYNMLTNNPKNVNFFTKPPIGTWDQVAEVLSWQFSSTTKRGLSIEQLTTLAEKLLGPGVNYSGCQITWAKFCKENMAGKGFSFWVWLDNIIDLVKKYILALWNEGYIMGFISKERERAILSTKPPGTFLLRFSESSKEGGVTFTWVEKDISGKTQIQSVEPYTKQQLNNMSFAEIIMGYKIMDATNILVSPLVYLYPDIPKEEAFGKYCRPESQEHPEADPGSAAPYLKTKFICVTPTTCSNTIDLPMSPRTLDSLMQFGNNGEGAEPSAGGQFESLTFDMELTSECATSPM
UniProt O14980: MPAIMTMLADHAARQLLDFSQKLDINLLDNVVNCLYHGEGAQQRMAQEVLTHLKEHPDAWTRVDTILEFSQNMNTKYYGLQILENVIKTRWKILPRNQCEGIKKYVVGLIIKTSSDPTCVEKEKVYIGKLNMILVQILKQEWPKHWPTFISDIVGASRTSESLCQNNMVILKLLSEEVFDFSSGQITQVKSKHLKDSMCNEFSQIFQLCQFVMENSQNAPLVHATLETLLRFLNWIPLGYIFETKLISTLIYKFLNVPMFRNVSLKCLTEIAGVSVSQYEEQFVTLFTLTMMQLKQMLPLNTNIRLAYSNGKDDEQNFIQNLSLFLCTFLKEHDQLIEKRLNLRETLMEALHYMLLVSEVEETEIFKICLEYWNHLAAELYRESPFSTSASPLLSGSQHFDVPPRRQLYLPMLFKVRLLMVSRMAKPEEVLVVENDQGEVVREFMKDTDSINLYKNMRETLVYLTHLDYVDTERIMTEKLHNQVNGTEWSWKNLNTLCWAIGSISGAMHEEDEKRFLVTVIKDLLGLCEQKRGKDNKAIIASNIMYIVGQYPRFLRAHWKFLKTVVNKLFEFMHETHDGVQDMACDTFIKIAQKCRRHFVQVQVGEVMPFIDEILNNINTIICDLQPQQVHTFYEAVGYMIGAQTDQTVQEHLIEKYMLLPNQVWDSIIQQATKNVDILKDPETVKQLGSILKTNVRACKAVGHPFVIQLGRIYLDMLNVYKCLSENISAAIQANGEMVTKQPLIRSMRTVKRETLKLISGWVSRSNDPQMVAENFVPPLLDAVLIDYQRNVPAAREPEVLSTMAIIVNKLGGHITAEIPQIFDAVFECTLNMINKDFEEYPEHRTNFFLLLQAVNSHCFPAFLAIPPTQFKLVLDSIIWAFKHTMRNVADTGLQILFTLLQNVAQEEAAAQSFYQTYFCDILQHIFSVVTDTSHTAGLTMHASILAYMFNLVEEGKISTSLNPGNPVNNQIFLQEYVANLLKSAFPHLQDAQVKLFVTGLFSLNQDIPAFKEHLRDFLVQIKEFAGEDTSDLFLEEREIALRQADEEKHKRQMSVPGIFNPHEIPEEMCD

Key:
[1] = target: T1, Dumbbell former 4 (DBF4) (human (endogenous in HCCLM3 and MHCC97H)) (UniProt Q9UBU7); assay: co-IP; endogenous proteins from whole cell lysates of HCC cells (HCCLM3, MHCC97H); Dynabeads Co-Immunoprecipitation Kit, antibody or IgG on beads, lysate incubated at 4°C for 30 minutes; also in cells with DBF4 depletion, or treated with TNF-α and selinexor
T1 sequence: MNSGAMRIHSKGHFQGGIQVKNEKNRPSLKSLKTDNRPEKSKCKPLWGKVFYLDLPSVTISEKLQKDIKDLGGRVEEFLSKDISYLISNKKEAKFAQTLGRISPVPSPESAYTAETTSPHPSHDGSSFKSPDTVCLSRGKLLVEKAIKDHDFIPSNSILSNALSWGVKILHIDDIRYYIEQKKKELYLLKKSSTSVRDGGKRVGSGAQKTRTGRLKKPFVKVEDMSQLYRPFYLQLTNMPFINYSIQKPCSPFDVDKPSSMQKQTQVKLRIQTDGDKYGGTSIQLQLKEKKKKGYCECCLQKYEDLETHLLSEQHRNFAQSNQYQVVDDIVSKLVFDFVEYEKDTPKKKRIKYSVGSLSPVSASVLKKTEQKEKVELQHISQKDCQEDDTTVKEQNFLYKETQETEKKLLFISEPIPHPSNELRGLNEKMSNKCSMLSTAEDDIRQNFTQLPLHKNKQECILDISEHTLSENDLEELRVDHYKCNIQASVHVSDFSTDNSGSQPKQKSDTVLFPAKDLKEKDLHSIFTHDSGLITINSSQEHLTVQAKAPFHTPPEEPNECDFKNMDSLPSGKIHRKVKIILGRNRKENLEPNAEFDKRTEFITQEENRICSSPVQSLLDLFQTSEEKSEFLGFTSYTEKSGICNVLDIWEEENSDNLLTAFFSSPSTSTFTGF

[2] = target: Cell division cycle 7 (CDC7) (human (endogenous in HCCLM3 and MHCC97H)) (UniProt O00311); assay: as above
[3] = target: Signal transducer and activator of transcription 3 (STAT3) (human (endogenous in HCCLM3 and MHCC97H)) (UniProt P40763); assay: as above
[4] = target: Signal transducer and activator of transcription 3 (STAT3) (human (endogenous in HCCLM3 and MHCC97H)) (UniProt P40763); assay: proximity ligation; Duolink proximity ligation assay in HCCLM3 cells with anti-CDC7 and anti-STAT3 antibodies; endogenous proteins
[5] = target: Signal transducer and activator of transcription 3 (STAT3) (human (endogenous in HCCLM3 and MHCC97H)) (UniProt P40763); assay: co-IP; endogenous proteins; cytoplasmic and nuclear fractions of MHCC97H cells transfected with siRNAs targeting XPO1 were separated and immunoprecipitated
[6] = target: Myc-tagged CDC7 (UniProt O00311); assay: co-IP; HEK293T cells cotransfected with Myc-CDC7 and HA-STAT3 (whole or truncated); immunoprecipitated with anti-Myc antibody, blot with anti-HA; also with TNF-α and selinexor treatment
[7] = target: HA-tagged STAT3 (UniProt P40763); assay: co-IP; HEK293T cells transfected with Myc-CDC7 and/or HA-STAT3; whole cell lysates immunoprecipitated with anti-HA antibody, IgG as negative control; blot with anti-Myc and anti-HA
[8] = target: HA-tagged STAT3 (UniProt P40763); assay: co-IP; HEK293T cells transfected with the indicated expressing plasmids (Flag-DBF4, STAT3, CDC7 wild type or D196N); precipitating antibody not told

binding [1]: binds
binding [2]: binds
Substance: Exportin 1 (XPO1) (from UniProt O14980 1-1071)

binding [3]: binds
binding [4]: binds
binding [5]: binds
Substance: Cell division cycle 7 (CDC7) (from UniProt O00311 1-574) (enzyme)

binding [6]: binds
Substance: HA-tagged STAT3 (from UniProt P40763 1-770)

binding [7]: binds
binding [8]: binds
Substance: Myc-tagged CDC7 (from UniProt O00311 1-574) (enzyme)
